The chains behind the UniProt entries cited, without tags or fusion partners.
UniProt P19821, whole entry: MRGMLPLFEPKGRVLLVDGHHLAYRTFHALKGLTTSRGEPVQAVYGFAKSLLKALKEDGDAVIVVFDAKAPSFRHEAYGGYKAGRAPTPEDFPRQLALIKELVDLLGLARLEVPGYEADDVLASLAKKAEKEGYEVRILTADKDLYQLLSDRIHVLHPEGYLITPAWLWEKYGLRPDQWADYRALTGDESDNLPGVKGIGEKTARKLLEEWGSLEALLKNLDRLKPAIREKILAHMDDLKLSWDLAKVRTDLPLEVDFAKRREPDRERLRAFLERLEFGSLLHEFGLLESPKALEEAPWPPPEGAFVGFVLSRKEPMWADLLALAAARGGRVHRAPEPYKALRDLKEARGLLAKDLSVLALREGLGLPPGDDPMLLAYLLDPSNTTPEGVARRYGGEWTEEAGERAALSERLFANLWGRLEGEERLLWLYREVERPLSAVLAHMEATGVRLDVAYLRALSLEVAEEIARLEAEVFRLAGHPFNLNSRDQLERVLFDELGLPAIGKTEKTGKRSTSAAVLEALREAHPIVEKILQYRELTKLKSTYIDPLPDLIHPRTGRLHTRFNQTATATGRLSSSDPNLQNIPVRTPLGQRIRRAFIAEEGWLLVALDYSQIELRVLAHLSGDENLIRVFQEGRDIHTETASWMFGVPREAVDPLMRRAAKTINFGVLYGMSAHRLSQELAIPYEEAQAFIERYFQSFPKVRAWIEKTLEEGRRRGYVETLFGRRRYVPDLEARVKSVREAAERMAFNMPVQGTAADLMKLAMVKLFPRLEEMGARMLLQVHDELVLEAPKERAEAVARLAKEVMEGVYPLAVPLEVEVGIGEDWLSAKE

In US20070212704:

Molecular target: AmpliTaq DNA polymerase (UniProt P19821)
Assay: activity assay
Settings: 7-deaza-dA at the four positions marked in Table 1: TCTGGGATA(deazaA)TT(deazaA)TGGTA(deazaA)ATATGT(Dabcyl-T)TTC(deazaA)TATTTATTATAATTATC(MGB-NFQ); 3' minor groove binder; purified recombinant protein; protein details: Applied Biosystems; label: internal Dabcyl-T in loop, 3' MGB-NFQ; folded or branched DNA; dose not given here

For “TCTGGGATAATTATGGTAAATATGTTTTCATATTTATTATAATTATC [DNA polymerase inhibitor E]”, the “functional effect of the aptamer” value was “active”.

Construct, isoform or probe ends are uncertain for at least one entry.
